The other results are listed elsewhere or left out.
Key:
Assay in all cases: log2 fold change, soluble protein after heating vs DMSO (PISA); higher = thermal stabilisation; K562 cells, 10 uM, 30 min; active = over 0.2 and 3.5 SD of the protein, either way, in both replicates (recomputed)
[1] = compound: CS(=O)(=O)c1ccc(-c2cnc(N)c(C(=O)Nc3ccccc3)n2)cc1
Summary of the method: (§1)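 K562 cells at 2×10^6 cells/mL were given 10 μM compound for 30 min. Aliquots then went through 3 min of heating across 48°C-58°C, were pooled, and were extracted in PBS with 0.5% NP-40 at 4°C, and the supernatant after 21,000xg for 90 min was quantified by TMTpro 16plex LC-MS/MS with channel sums equalised. Thermal stability relative to control samples, from duplicates, is given as log2 fold change.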

Amino acid sequences for entries named in this document (tags omitted). A change or cut given only in a name is not applied to a line headed by its entry.
UniProt P43366: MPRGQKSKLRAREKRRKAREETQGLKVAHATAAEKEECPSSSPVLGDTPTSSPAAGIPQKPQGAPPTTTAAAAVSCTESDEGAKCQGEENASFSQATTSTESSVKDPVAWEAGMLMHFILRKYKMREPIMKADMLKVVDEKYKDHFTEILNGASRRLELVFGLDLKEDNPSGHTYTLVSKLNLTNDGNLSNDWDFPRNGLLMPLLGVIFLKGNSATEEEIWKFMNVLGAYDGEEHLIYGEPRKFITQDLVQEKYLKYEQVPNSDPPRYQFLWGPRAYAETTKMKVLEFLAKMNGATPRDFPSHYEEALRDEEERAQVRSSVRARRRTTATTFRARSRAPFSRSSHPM
UniProt Q96GA3: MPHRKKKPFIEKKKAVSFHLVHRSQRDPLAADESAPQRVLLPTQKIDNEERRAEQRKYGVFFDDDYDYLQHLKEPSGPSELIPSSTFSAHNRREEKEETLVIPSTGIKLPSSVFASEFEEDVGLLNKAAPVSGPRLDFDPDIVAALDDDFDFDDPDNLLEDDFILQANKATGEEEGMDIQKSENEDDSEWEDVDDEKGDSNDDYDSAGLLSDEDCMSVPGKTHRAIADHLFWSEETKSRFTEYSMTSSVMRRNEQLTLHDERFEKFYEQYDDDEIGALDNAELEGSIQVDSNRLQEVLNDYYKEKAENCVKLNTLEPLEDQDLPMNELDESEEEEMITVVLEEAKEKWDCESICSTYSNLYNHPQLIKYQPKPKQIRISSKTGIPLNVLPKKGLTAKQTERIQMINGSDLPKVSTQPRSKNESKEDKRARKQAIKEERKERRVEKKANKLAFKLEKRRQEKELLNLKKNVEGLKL
UniProt P27448: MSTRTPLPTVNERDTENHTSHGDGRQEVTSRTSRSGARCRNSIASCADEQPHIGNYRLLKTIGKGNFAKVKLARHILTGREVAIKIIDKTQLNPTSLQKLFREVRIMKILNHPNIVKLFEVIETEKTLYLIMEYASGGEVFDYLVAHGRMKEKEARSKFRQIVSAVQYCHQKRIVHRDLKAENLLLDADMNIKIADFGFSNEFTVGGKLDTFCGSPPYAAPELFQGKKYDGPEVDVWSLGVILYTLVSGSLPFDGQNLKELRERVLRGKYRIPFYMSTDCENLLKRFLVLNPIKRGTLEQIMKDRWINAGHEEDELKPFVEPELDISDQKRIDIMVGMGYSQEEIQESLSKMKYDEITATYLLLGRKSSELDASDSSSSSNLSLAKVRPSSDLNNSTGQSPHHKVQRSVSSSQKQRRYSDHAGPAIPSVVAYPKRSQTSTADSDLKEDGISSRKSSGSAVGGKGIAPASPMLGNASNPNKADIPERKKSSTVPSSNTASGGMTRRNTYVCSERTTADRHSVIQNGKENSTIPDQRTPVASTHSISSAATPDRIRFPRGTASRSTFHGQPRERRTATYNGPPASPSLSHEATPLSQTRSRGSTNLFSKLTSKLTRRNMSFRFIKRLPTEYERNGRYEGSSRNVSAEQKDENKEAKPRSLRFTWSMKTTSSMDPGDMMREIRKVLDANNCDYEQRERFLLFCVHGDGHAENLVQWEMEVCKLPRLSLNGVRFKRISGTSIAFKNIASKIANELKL
UniProt O14733: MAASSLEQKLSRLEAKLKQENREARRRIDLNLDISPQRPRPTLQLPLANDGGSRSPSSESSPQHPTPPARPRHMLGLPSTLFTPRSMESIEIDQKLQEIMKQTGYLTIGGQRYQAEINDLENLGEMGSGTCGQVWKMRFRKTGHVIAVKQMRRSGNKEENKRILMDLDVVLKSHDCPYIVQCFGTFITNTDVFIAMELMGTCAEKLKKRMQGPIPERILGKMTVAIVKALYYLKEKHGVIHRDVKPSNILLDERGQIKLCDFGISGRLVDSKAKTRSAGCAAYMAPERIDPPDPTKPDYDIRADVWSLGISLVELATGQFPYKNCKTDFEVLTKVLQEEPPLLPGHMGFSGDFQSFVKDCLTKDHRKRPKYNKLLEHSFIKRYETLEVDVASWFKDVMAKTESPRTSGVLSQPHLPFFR
UniProt Q9UBF1: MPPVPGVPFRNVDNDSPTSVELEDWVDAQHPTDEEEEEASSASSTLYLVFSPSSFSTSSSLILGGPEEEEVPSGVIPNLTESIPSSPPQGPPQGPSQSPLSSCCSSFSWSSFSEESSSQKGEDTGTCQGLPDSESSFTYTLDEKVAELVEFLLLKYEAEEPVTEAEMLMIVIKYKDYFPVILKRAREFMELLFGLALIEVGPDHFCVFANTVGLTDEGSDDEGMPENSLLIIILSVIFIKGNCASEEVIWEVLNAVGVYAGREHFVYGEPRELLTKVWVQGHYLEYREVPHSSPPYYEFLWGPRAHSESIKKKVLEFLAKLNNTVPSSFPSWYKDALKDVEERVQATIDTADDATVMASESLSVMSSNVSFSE
UniProt O95232: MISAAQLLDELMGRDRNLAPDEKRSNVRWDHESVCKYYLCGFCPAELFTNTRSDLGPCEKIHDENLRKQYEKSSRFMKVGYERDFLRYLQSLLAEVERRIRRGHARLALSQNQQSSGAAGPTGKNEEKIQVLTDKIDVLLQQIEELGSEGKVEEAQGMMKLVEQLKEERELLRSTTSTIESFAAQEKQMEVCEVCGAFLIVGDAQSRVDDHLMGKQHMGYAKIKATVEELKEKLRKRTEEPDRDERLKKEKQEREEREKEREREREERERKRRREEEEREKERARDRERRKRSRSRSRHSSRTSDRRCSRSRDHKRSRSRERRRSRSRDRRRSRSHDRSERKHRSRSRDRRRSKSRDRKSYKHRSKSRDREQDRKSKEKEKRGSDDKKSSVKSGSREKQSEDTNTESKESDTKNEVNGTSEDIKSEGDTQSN
UniProt Q86X29: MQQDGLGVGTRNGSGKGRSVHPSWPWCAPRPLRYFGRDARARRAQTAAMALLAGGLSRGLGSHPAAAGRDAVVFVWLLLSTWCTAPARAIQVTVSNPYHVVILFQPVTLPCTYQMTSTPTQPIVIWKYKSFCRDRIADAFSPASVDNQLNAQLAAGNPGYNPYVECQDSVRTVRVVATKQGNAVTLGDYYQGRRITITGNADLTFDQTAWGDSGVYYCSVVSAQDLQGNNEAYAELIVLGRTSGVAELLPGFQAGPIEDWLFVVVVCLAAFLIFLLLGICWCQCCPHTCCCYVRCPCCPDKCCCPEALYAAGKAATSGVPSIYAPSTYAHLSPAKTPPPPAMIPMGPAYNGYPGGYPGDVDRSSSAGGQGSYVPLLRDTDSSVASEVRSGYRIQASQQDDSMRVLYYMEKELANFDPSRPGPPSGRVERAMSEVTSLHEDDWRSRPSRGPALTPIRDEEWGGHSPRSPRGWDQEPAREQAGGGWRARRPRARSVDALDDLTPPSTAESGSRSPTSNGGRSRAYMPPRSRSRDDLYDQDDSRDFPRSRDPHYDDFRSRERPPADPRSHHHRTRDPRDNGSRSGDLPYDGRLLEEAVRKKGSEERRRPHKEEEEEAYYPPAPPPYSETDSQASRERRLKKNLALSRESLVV
UniProt Q7L1W4: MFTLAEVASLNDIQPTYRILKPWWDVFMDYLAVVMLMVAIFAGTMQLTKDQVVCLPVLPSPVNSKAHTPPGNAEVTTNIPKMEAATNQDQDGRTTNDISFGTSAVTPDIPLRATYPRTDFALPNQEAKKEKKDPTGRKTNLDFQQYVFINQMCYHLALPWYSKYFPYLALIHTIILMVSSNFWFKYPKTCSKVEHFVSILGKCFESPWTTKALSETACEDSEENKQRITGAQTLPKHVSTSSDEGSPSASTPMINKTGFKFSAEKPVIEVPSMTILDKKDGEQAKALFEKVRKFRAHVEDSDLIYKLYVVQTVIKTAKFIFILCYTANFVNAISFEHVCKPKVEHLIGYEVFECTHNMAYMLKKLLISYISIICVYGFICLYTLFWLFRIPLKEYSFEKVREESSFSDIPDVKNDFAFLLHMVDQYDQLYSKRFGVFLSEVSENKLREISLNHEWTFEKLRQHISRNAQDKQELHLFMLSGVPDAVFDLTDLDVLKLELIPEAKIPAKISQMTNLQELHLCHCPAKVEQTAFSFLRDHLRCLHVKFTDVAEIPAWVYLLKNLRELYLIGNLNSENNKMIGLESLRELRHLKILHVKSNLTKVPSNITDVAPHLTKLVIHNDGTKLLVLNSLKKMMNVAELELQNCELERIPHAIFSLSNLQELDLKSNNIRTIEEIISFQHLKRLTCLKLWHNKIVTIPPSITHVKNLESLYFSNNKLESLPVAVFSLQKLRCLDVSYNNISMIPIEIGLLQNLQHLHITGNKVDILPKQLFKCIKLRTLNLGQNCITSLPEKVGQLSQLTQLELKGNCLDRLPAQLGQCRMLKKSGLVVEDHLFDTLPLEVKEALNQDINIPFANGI
UniProt P45983: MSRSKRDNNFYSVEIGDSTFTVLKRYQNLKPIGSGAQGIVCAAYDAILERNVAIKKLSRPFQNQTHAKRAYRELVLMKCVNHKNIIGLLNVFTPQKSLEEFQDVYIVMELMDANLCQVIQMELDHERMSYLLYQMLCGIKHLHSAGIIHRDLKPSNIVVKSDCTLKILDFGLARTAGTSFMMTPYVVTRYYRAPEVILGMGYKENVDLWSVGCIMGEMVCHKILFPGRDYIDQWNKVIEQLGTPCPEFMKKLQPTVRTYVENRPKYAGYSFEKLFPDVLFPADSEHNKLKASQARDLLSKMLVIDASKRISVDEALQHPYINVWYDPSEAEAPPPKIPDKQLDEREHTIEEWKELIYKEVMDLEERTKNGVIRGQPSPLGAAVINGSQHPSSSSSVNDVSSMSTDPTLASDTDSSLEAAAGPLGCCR
UniProt P43362: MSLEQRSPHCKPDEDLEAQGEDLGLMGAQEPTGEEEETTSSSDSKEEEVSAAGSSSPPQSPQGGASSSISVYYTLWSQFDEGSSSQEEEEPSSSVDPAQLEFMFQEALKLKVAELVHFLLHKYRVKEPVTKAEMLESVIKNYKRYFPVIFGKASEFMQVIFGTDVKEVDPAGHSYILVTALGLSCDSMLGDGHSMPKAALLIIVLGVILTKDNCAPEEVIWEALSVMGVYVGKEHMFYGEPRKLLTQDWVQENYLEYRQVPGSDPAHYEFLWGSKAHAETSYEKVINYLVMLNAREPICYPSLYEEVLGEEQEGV
UniProt Q86V48: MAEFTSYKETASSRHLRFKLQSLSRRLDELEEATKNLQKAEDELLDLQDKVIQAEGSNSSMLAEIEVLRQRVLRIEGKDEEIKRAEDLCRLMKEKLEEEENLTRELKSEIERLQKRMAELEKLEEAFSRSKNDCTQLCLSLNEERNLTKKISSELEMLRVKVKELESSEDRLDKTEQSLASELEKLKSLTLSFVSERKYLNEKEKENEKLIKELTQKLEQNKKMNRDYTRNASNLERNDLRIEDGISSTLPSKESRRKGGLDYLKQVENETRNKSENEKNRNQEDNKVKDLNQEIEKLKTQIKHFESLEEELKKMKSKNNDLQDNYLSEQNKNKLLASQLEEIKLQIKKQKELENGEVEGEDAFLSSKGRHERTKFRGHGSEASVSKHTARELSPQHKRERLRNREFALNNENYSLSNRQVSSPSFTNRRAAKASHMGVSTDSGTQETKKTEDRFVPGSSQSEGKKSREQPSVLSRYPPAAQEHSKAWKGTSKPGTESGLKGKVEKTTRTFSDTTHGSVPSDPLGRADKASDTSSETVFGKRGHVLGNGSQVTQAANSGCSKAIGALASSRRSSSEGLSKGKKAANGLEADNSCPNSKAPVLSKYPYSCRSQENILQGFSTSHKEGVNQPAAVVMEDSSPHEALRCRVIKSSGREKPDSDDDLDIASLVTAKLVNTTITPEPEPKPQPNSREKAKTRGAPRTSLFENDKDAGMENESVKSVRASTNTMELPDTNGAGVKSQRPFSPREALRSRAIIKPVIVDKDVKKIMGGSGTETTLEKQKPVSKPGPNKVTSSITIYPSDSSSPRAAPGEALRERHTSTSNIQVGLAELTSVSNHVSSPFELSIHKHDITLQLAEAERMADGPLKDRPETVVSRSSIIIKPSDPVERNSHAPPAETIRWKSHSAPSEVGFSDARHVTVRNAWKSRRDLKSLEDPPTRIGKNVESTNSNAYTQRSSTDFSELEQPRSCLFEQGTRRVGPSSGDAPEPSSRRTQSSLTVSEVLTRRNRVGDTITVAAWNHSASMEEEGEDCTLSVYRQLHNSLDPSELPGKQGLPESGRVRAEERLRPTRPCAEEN
UniProt P29966: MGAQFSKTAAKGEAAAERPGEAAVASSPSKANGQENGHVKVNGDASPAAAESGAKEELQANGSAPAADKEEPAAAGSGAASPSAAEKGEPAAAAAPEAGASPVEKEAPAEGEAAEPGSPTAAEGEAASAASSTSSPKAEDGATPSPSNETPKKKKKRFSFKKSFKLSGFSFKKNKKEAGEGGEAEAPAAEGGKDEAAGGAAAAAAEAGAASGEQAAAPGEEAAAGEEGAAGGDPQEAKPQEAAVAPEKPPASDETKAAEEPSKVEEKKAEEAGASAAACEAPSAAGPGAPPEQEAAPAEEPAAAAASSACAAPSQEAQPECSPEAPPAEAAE

crizotinib = compound: C[C@@H](Oc1cc(-c2cnn(C3CCNCC3)c2)cnc1N)c1c(Cl)ccc(F)c1Cl [crizotinib]
Summary of the method: as §1

[2] = compound: C[C@@H]1COCCN1C2=NC(=NC(=C2)C3(CC3)S(=O)(=O)C)C4=C5C=CNC5=CC=C4
Summary of the method: as §1

[3] = compound: C[C@H](C1=CC=C(C=C1)C(=O)NC2=C3C=CNC3=NC=C2)N
Summary of the method: as §1

duvelisib = compound: C[C@H](Nc1ncnc2nc[nH]c12)c1cc2cccc(Cl)c2c(=O)n1-c1ccccc1 [duvelisib]
Summary of the method: as §1

gandotinib = compound: Cc1cc(Nc2cc(CN3CCOCC3)c3nc(C)c(Cc4ccc(Cl)cc4F)n3n2)n[nH]1 [gandotinib]
Summary of the method: as §1

tozasertib = compound: Cc1cc(Nc2cc(N3CCN(C)CC3)nc(Sc3ccc(NC(=O)C4CC4)cc3)n2)n[nH]1 [tozasertib]
Summary of the method: as §1

[4] = compound: Cc1cc(SCc2sc(-c3ccc(C(F)(F)F)cc3)nc2C)ccc1OCC(=O)O
Summary of the method: as §1

doramapimod = compound: Cc1ccc(-n2nc(C(C)(C)C)cc2NC(=O)Nc2ccc(OCCN3CCOCC3)c3ccccc23)cc1 [doramapimod]
Summary of the method: as §1

ispinesib = compound: Cc1ccc(C(=O)N(CCCN)[C@@H](c2nc3cc(Cl)ccc3c(=O)n2Cc2ccccc2)C(C)C)cc1 [ispinesib]
Summary of the method: as §1

bafetinib = compound: Cc1ccc(NC(=O)c2ccc(CN3CC[C@H](N(C)C)C3)c(C(F)(F)F)c2)cc1Nc1nccc(-c2cncnc2)n1 [bafetinib]
Summary of the method: as §1

[5] = compound: Cc1cccc(CC(=O)N2CCc3c2ccc(-c2cn(C)c4ncnc(N)c24)c3F)n1
Summary of the method: as §1

nilotinib = compound: Cc1cn(-c2cc(NC(=O)c3ccc(C)c(Nc4nccc(-c5cccnc5)n4)c3)cc(C(F)(F)F)c2)cn1 [nilotinib]
Summary of the method: as §1

[6] = compound: Cc1nc(Nc2n[nH]c3c2CN(C(=O)N[C@H](CN(C)C)c2ccccc2)C3(C)C)c2sccc2n1
Summary of the method: as §1

dasatinib = compound: Cc1nc(Nc2ncc(C(=O)Nc3c(C)cccc3Cl)s2)cc(N2CCN(CCO)CC2)n1 [dasatinib]
Summary of the method: as §1

[7] = compound: Cc1ncc(-c2ccnc(Nc3ccc(S(C)(=O)=O)cc3)n2)n1C(C)C
Summary of the method: as §1

[8] = compound: Cn1cc(-c2ccc3c(c2)CCN3C(=O)Cc2cccc(C(F)(F)F)c2)c2c(N)ncnc21
Summary of the method: as §1

[9] = compound: Cn1cc(-c2ccc3nnc(C(F)(F)c4ccc5ncccc5c4)n3n2)cn1
Summary of the method: as §1

tipifarnib = compound: Cn1cncc1[C@@](N)(c1ccc(Cl)cc1)c1ccc2c(c1)c(-c1cccc(Cl)c1)cc(=O)n2C [tipifarnib]
Summary of the method: as §1

mubritinib = compound: FC(F)(F)c1ccc(/C=C/c2nc(COc3ccc(CCCCn4ccnn4)cc3)co2)cc1 [mubritinib]
Summary of the method: as §1

Measured: log2 fold change

MAGEB1 (UniProt P43366)
inactive: [1] -0.095 | crizotinib -0.037 | [2] -0.406 | [3] 0.435 | duvelisib -0.228 | gandotinib 0.127 | tozasertib 0.068 | [4] 0.056 | doramapimod 0.207 | ispinesib -0.231 | bafetinib 0.185 | [5] 0.132 | nilotinib -0.043 | [6] -0.042 | dasatinib 0.085 | [7] -0.017 | [8] -0.244 | [9] -0.183 | tipifarnib 0.098 | mubritinib -0.247

LTBR (UniProt P36941)
inactive: [1] 0.058 | crizotinib 0.089 | [2] -0.064 | [3] 0.024 | duvelisib -0.016 | gandotinib -0.083 | tozasertib -0.146 | [4] -0.103 | doramapimod 0.05 | ispinesib -0.02 | bafetinib -0.046 | [5] 0.002 | dasatinib 0.086 | [8] -0.107 | [9] 0.034 | tipifarnib 0.03

LYN (UniProt P07948)
inactive: [1] -0.023 | crizotinib -0.142 | [2] -0.101 | [3] -0.01 | gandotinib -0.015 | [4] 0.132 | doramapimod 0.065 | ispinesib -0.094 | bafetinib 0.26 | [5] 0.008 | nilotinib 0.062 | [7] -0.043 | [8] -0.06 | [9] 0.034 | tipifarnib -0.005 | mubritinib -0.003
active: [6] -0.414 | dasatinib -0.419

Looked up one by one from the list above, two records:
LYN (UniProt P07948)
inactive: [1] -0.023 | crizotinib -0.142 | [2] -0.101 | [3] -0.01 | gandotinib -0.015 | [4] 0.132 | doramapimod 0.065 | ispinesib -0.094 | bafetinib 0.26 | [5] 0.008 | nilotinib 0.062 | [7] -0.043 | [8] -0.06 | [9] 0.034 | tipifarnib -0.005 | mubritinib -0.003
active: [6] -0.414 | dasatinib -0.419

LTBR (UniProt P36941)
inactive: [1] 0.058 | crizotinib 0.089 | [2] -0.064 | [3] 0.024 | duvelisib -0.016 | gandotinib -0.083 | tozasertib -0.146 | [4] -0.103 | doramapimod 0.05 | ispinesib -0.02 | bafetinib -0.046 | [5] 0.002 | dasatinib 0.086 | [8] -0.107 | [9] 0.034 | tipifarnib 0.03

Next part:

LTV1 (UniProt Q96GA3)
inactive: [1] 0.006 | crizotinib -0.143 | [2] -0.189 | [3] 0.294 | gandotinib 0.199 | [4] 0.009 | doramapimod 0.128 | ispinesib -0.271 | bafetinib 0.137 | [5] -0.039 | nilotinib -0.047 | [6] 0.137 | dasatinib 0.025 | [7] 0.009 | [8] -0.112 | [9] -0.09 | tipifarnib 0.064 | mubritinib 0.042

MARK3 (UniProt P27448)
inactive: [1] -0.042 | [2] -0.039 | [3] 0.063 | gandotinib -0.194 | [4] 0.089 | doramapimod 0.073 | ispinesib -0.173 | bafetinib 0.033 | [5] 0.108 | nilotinib -0.125 | dasatinib -0.104 | [7] -0.11 | [8] -0.062 | [9] -0.046 | tipifarnib -0.013 | mubritinib -0.075
active: crizotinib -0.394 | [6] -0.718

MAP2K7 isoform 4 (UniProt O14733)
inactive: [1] 0.017 | crizotinib -0.112 | [2] 0.003 | [3] -0.003 | gandotinib -0.055 | [4] -0.038 | doramapimod 0 | ispinesib -0.051 | bafetinib -0.086 | [5] 0 | nilotinib -0.035 | [6] 0.025 | dasatinib -0.075 | [7] -0.039 | [8] -0.006 | [9] 0.02 | tipifarnib 0.027 | mubritinib -0.018

MAPK9 (UniProt P45984)
inactive: [1] 0.006 | crizotinib -0.042 | [2] 0.054 | [3] -0.068 | gandotinib -0.018 | [4] -0.041 | doramapimod 0.145 | ispinesib 0.01 | bafetinib -0.112 | [5] 0.003 | nilotinib -0.023 | [6] 0.047 | dasatinib -0.044 | [7] 0.134 | [8] 0.042 | [9] 0.04 | tipifarnib 0.015 | mubritinib -0.059

MAGEC2 (UniProt Q9UBF1)
inactive: [1] 0.008 | crizotinib 0.049 | [2] 0.009 | [3] 0.081 | gandotinib 0.055 | [4] -0.036 | doramapimod -0.036 | ispinesib -0.012 | bafetinib -0.024 | [5] -0.065 | nilotinib -0.02 | [6] 0.021 | dasatinib 0.059 | [7] 0 | [8] -0.056 | [9] -0.07 | tipifarnib -0.02 | mubritinib -0.015

LUC7L3 (UniProt O95232)
inactive: [1] -0.001 | crizotinib -0.045 | [2] -0.022 | gandotinib 0.065 | [4] 0.02 | doramapimod 0 | ispinesib 0.099 | bafetinib 0.001 | [5] -0.001 | nilotinib 0.091 | dasatinib -0.037 | [7] 0.052 | [8] 0.007 | [9] -0.019 | tipifarnib 0.036 | mubritinib 0.02
active: [3] -0.219 | [6] -2.05

MAP1LC3B2 (UniProt A6NCE7)
inactive: [1] 0.035 | crizotinib -0.047 | [2] 0.054 | [3] -0.144 | gandotinib -0.012 | [4] 0.011 | doramapimod 0.003 | ispinesib 0.02 | bafetinib -0.044 | [5] -0.029 | nilotinib -0.006 | [6] -0.023 | dasatinib -0.024 | [7] 0.072 | [8] 0.019 | [9] -0.011 | tipifarnib 0.007 | mubritinib 0.018

LSR (UniProt Q86X29)
inactive: [1] 0.08 | crizotinib 0.043 | [2] 0.009 | [3] -0.025 | gandotinib -0.012 | [4] -0.031 | doramapimod 0.04 | ispinesib 0.027 | bafetinib 0.068 | [5] -0.057 | nilotinib 0.024 | dasatinib 0.003 | [7] 0.009 | [8] 0.072 | [9] 0.018 | tipifarnib 0.011 | mubritinib 0.01
active: [6] -0.254

LYZ (UniProt P61626)
inactive: [1] 0.051 | crizotinib 0.343 | [2] -0.036 | [3] -0.103 | duvelisib -0.107 | tozasertib -0.018 | [4] -0.226 | doramapimod 0.091 | ispinesib 0.602 | bafetinib 0.958 | nilotinib 0.022 | [6] 0.098 | dasatinib -0.16 | [7] -0.015 | [8] -0.002 | [9] 0.248 | tipifarnib -0.176 | mubritinib 0.288

LRRC8D (UniProt Q7L1W4)
inactive: [1] 0.124 | crizotinib -0.069 | [2] -0.308 | [3] 0.265 | duvelisib -0.105 | tozasertib -0.281 | [4] 0.203 | doramapimod 0.044 | ispinesib -0.212 | nilotinib -0.001 | [6] 0.014 | dasatinib 0.022 | [7] 0.002 | [8] -0.103 | [9] -0.091 | tipifarnib -0.023 | mubritinib 0.018

MAPK8 isoform 3 (UniProt P45983)
inactive: [1] 0.003 | crizotinib -0.08 | [2] 0.092 | [3] -0.096 | gandotinib 0.254 | [4] 0.096 | doramapimod -0.019 | ispinesib -0.008 | bafetinib -0.011 | [5] -0.048 | nilotinib 0.022 | dasatinib -0.318 | [8] 0.047 | [9] -0.058 | tipifarnib 0.001 | mubritinib -0.179
active: [6] 0.415 | [7] 0.495

MAP2K2 (UniProt P36507)
inactive: [1] 0.013 | crizotinib -0.055 | [2] 0.069 | [3] -0.052 | gandotinib -0.069 | [4] -0.01 | doramapimod -0.038 | ispinesib -0.058 | bafetinib -0.081 | [5] 0.007 | nilotinib -0.003 | [6] -0.154 | dasatinib -0.092 | [7] -0.018 | [8] 0.023 | [9] 0.098 | tipifarnib 0.015 | mubritinib 0.017

MAGEA9 (UniProt P43362)
inactive: [1] 0.005 | crizotinib 0.008 | [2] 0.082 | [3] -0.028 | gandotinib -0.095 | [4] -0.029 | doramapimod 0 | ispinesib -0.001 | bafetinib 0.03 | [5] -0.02 | nilotinib 0.021 | [6] -0.006 | dasatinib 0.074 | [7] -0.034 | [8] 0.065 | [9] -0.024 | tipifarnib -0.008 | mubritinib -0.048

LUZP1 (UniProt Q86V48)
inactive: [1] 0.183 | crizotinib -0.259 | [2] -0.265 | [3] 0.191 | gandotinib 0.058 | [4] 0.206 | doramapimod 0.017 | ispinesib -0.138 | bafetinib -0.075 | [5] -0.028 | nilotinib -0.086 | [6] -0.35 | dasatinib 0.106 | [7] 0.21 | [8] -0.129 | [9] -0.104 | tipifarnib 0.186 | mubritinib -0.055

MARCKS (UniProt P29966)
inactive: [1] 0.022 | crizotinib 0.198 | [2] -0.042 | [3] -0.191 | gandotinib 0.234 | [4] 0.025 | doramapimod 0 | ispinesib -0.031 | bafetinib -0.102 | [5] -0.133 | nilotinib 0.053 | [6] -0.003 | dasatinib 0.022 | [7] -0.007 | [8] 0.033 | [9] 0.034 | tipifarnib -0.002 | mubritinib -0.017
